Where two headings read alike, the source gives them in different places. Results are given in words; binding and its absence hold for the method and conditions named. Some entries that bind do so weakly or less than the wild type. Sequences can lack the tags named with a protein.
How the values were obtained:
Assay in all cases: single-molecule fluorescence motility assay
[1] = target: Cin8-GFP-6His (tetrameric kinesin-5 Cin8 of Saccharomyces cerevisiae) (S. cerevisiae) (UniProt P27895)
[2] = target: Cin8-GFP-6His (tetrameric kinesin-5 Cin8 of Saccharomyces cerevisiae) (S. cerevisiae) (UniProt P27895); remark: listed apart in the source
[3] = target: Cin8-GFP-6His (tetrameric kinesin-5 Cin8 of Saccharomyces cerevisiae) (S. cerevisiae) (UniProt P27895); remark: listed apart in the source

Measured: binding

B1: Cin8-GFP-6His (tetrameric kinesin-5 Cin8 of Saccharomyces cerevisiae) (protein, UniProt P27895 1-1000)
chain: MPAENQNTGQDRSSNSISKNGNSQVGCHTVPNEELNITVAVRCRGRNEREISMKSSVVVNVPDITGSKEISINTTGDTGITAQMNAKRYTVDKVFGPGASQDLIFDEVAGPLFQDFIKGYNCTVLVYGMTSTGKTYTMTGDEKLYNGELSDAAGIIPRVLLKLFDTLELQQNDYVVKCSFIELYNEELKDLLDSNSNGSSNTGFDGQFMKKLRIFDSSTANNTTSNSASSSRSNSRNSSPRSLNDLTPKAALLRKRLRTKSLPNTIKQQYQQQQAVNSRNNSSSNSGSTTNNASSNTNTNNGQRSSMAPNDQTNGIYIQNLQEFHITNAMEGLNLLQKGLKHRQVASTKMNDFSSRSHTIFTITLYKKHQDELFRISKMNLVDLAGSENINRSGALNQRAKEAGSINQSLLTLGRVINALVDKSGHIPFRESKLTRLLQDSLGGNTKTALIATISPAKVTSEETCSTLEYASKAKNIKNKPQLGSFIMKDILVKNITMELAKIKSDLLSTKSKEGIYMSQDHYKNLNSDLESYKNEVQECKREIESLTSKNALLVKDKLKSKETIQSQNCQIESLKTTIDHLRAQLDKQHKTEIEISDFNNKLQKLTEVMQMALHDYKKRELDLNQKFEMHITKEIKKLKSTLFLQLNTMQQESILQETNIQPNLDMIKNEVLTLMRTMQEKAELMYKDCVKKILNESPKFFNVVIEKIDIIRVDFQKFYKNIAENLSDISEENNNMKQYLKNHFFKNNHQELLNRHVDSTYENIEKRTNEFVENFKKVLNDHLDENKKLIMQNLTTATSAVIDQEMDLFEPKRVKWENSFDLINDCDSMNNEFYNSMAATLSQIKSTVDTSSNSMNESISVMKGQVEESENAISLLKNNTKFNDQFEQLINKHNMLKDNIKNSITSTHSHITNVDDIYNTIENIMKNYGNKENATKDEMIENILKEIPNLSKKMPLRLSNINSNSVQSVISPKKHAIEDENKSSENVDNEGSRKMLKIE
binds weakly: all assays above

— paper doi:10.1101/2020.01.24.918714
